This note sets out measurements from US10449230B2 (The Regents of the University of California, priority 2016, dated 2019).

Some peptides are written in HELM: one residue between dots, names in brackets for other building blocks, links after the first $.

The series can be described thus: general procedure: peptide synthesis; HATU/DIEA (4a); PyBrop/DIEA (4b). To be noted: TFA salt; for conjugation yield: conjugation step.

For the substance Boc-PMBN, the step yield (late stage modification step) was found to be 69%.

For the substance “PEPTIDE1{[BiotPEG3TzBu].[Dab].T.[Dab].[Dab].[Dab].[dF].L.[Dab].[Dab].T}$PEPTIDE1,PEPTIDE1,5:R3-11:R2$$$V2.0”, the conjugation yield was determined as 48%. Same read-out and setting: in the case of “PEPTIDE1{[BiotPEG3TzBu].[GDab].T.[GDab].[Dab].[GDab].[dF].L.[GDab].[GDab].T}$PEPTIDE1,PEPTIDE1,5:R3-11:R2$$$V2.0” it was 25%.
